# Assay results

The results are deposited in PubChem (AID1347107; NCATS, 2019).

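Over two days of treatment, Rh30 pediatric muscle-tumor cells were checked for survival using a luminescent ATP-based viability readout.
Compounds ran as dilution series reaching 46 µM at the top, from about 0.78 nM for the 11-point MIPE set.
The number is the fitted AC50 potency for loss of cell viability; a lower value means a more potent cytotoxic effect.
Calls come from curve class and an activity score: actives score 40 to 100, inconclusives 1 to 39 (weak, partial, poorly fitted or top-dose-only curves), and inactives score 0.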

Values are in nM.
All entries here are filed as inconclusive.
These entries are mostly ones the record files as inconclusive; other results of the assay are not listed here.
Potencies fitted to partial, single-point or poorly fitting curves are rough.
Activity scores are not listed here.

| # | SMILES | Potency (nM) | curve as filed |
|---|---|---|---|
| 1 | `CN1CCN(CCOc2cc(OC3CCOCC3)c3c(Nc4c(Cl)ccc5c4OCO5)ncnc3c2)CC1` | 14817 | cytotoxic, partial curve |
| 2 | `O=c1c(O)c(-c2ccc(O)c(O)c2)oc2cc(O)cc(O)c12` | 18654 | cytotoxic, partial curve |
| 3 | `C[C@@]1(C(=O)Nc2ccc(F)nc2)CCCN1c1nc(Nc2cc(C3CC3)[nH]n2)c2cccn2n1` | 2348 | cytotoxic, partial curve |
| 4 | `CCOc1cc2ncc(C#N)c(Nc3ccc(F)c(Cl)c3)c2cc1NC(=O)C=CCN(C)C` | 11770 | cytotoxic, partial curve |
| 5 | `CCOC(=O)N1CCC(=C2c3ccc(Cl)cc3CCc3cccnc32)CC1` | 20930 | cytotoxic, partial curve |
| 6 | `CC1(C)Cc2c(-c3ccccc3)c(-c3ccc(Cl)cc3)c(CC(=O)O)n2C1` | 14817 | cytotoxic, partial curve, poor fit |
| 7 | `CN(C)C(=O)C(CCN1CCC(O)(c2ccc(Cl)cc2)CC1)(c1ccccc1)c1ccccc1` | 26608 | cytotoxic, single point |
| 8 | `CC(=O)SCC(Cc1ccccc1)C(=O)NCC(=O)OCc1ccccc1` (stereo not given) | 2093 | cytotoxic, partial curve |
| 9 | `C[C@]12CC[C@H](O)CC1=CC[C@H]1[C@H]3CCC(=O)[C@@]3(C)CC[C@@H]12` | 10490 | cytotoxic, partial curve |